Measurements: PubChem BioAssay AID248 (DTP/NCI, 2004)
The list is a part of this screen's results and no random one: it gathers tests that were run many times, whatever their T/C, doses with no T/C, and many T/C values between a quarter and a half above the control. Further doses and runs are listed elsewhere. T/C gives the treated animals as a percentage of the vehicle group. Some doses have a count of surviving animals in place of a T/C: the source files T/C as zero there, which appears to mark a toxic dose or a test without result, not a measured value. Some doses without a T/C left all or most animals alive at the check, yet need not have been tolerated: the source hardly ever lists a survival T/C far under the control, and the zero likely stands for such cases as well. Counts of survivors are from the toxicity check (mostly the fifth day) where no day follows; animals may have died later. Schedules are NCI's codes, taken here to give the interval after Q, in days (D) or hours (H), and the number of doses after X. Some entries hold several experiments; the results are listed from low to high. Some schedule codes hold Z or #, which are not explained here. Some structures stand for samples that the source files as different forms (salt, stereo form or complex); doses refer to the form tested. For survival time, this PubChem deposit counts one and a half times the control or more as active, and values a quarter to a half above the control carry no call in these data; other NCI protocols may use other cut-offs. Some T/C values carry the count of animals alive at the toxicity check (mostly the fifth day); without a count, all were alive then.

System: L1210 leukemia ip in BDF1 mice, survival T/C
Test: NCI In Vivo Anticancer Drug Screen. Data for tumor model L1210 Leukemia (intraperitoneal) in B6D2F1 (BDF1) mice
Settings: T/C endpoint: mean survival time, higher T/C = longer survival
[1] = dose: 400.0 mg/kg/injection, schedule: Q01DX009 (ip), vehicle: Klucel (hydroxypropylcellulose) (HPC)
[2] = dose: 200.0 mg/kg/injection, schedule: Q01DX001 (ip), vehicle: saline
[3] = dose: 400.0 mg/kg/injection, schedule: Q01DX001 (ip), vehicle: saline
[4] = dose: 100.0 mg/kg/injection, schedule: Q01DX001 (ip), vehicle: carboxymethylcellulose (CMC)
[5] = dose: 200.0 mg/kg/injection, schedule: Q01DX001 (ip), vehicle: carboxymethylcellulose (CMC)
[6] = dose: 400.0 mg/kg/injection, schedule: Q01DX001 (ip), vehicle: carboxymethylcellulose (CMC)
[7] = dose: 400.0 mg/kg/injection, schedule: Q01DX001 (ip), vehicle: other
[8] = dose: 200.0 mg/kg/injection, schedule: Q04DX002 (ip), vehicle: saline with Tween-80
[9] = dose: 400.0 mg/kg/injection, schedule: Q04DX002 (ip), vehicle: saline with Tween-80
[10] = dose: 400.0 mg/kg/injection, schedule: Q04DX003 (ip), vehicle: saline
[11] = dose: 200.0 mg/kg/injection, schedule: Q04DX003 (ip), vehicle: saline with Tween-80
[12] = dose: 400.0 mg/kg/injection, schedule: Q04DX003 (ip), vehicle: saline with Tween-80
[13] = dose: 100.0 mg/kg/injection, schedule: Q01DX009 (ip), vehicle: saline with Tween-80
[14] = dose: 100.0 mg/kg/injection, schedule: Q04DX002 (ip), vehicle: saline with Tween-80

`CCOC(=O)CNC(=O)Nc1ccccc1F` was tested, and the T/C (dose: 100.0 mg/kg/injection, schedule: Q01DX009 (ip), vehicle: gum acacia) was 96, 98, 103, 106 % of control and the T/C (dose: 200.0 mg/kg/injection, schedule: Q01DX009 (ip), vehicle: gum acacia) was 94, 96, 98, 107 % of control.
`CCCCCCCCCCCCCCCCC(=O)OCC` was tested, and the survivor count (dose: 150.0 mg/kg/injection, schedule: Q01DX001 (ip), vehicle: carboxymethylcellulose (CMC)) was 0 of 6 and the survivor count (dose: 300.0 mg/kg/injection, schedule: Q01DX001 (ip), vehicle: carboxymethylcellulose (CMC)) was 0 of 6.
With `Nc1nnc(N)c2nc(-c3ccccc3)c(-c3ccccc3)nc12` the survivor count [1] was 2 of 6.
`CCOC(=O)c1cc(N(CCOS(C)(=O)=O)CCOS(C)(=O)=O)ccc1N` was tested, and the T/C (dose: 10.0 mg/kg/injection, schedule: Q01DX001 (ip), vehicle: saline) was 131 % of control, the survivor count (dose: 10.0 mg/kg/injection, schedule: Q01DX015 (ip), vehicle: saline) was 1 of 6 and the survivor count (dose: 15.0 mg/kg/injection, schedule: Q01DX015 (ip), vehicle: saline) was 3 of 6. For the same molecule, the T/C (dose: 20.0 mg/kg/injection, schedule: Q01DX001 (ip), vehicle: saline) was 127 % of control, the survivor count (dose: 40.0 mg/kg/injection, schedule: Q01DX001 (ip), vehicle: saline) was 1 of 4 and the survivor count (dose: 50.0 mg/kg/injection, schedule: Q01DX001 (ip), vehicle: saline) was 0 of 4. For the same molecule, the survivor count (dose: 80.0 mg/kg/injection, schedule: Q01DX001 (ip), vehicle: saline) was 0 of 4, the survivor count (dose: 100.0 mg/kg/injection, schedule: Q01DX001 (ip), vehicle: saline) was 0 of 4 and the survivor count [2] was 0 of 4. The survivor count [3] was 0 of 4.
For `O=C(O)c1nc(SCc2ccccc2)n(Cc2ccccc2)c1C(=O)O`, the T/C [4] was 88, 91, 95, 99, 100 % of control, the survivor count [4] was 3 of 3 and the T/C [5] was 88, 100 [4 of 6 alive], 102 % of control [2 of 3 alive]. The survivor count [5] was 5 of 6 and 3 of 3, the T/C [6] was 91, 91 [2 of 3 alive], 91 [4 of 6 alive], 95 [2 of 3 alive], 96, 98 % of control [5 of 6 alive] and the survivor count (dose: 400.0 mg/kg/injection, schedule: Q04DX003 (ip), vehicle: carboxymethylcellulose (CMC)) was 1 of 3.
With `CCOC(=O)c1c[nH]c2ccc(N(CCCl)CCCl)cc12` the T/C (dose: 20.0 mg/kg/injection, schedule: Q01DX001 (ip), vehicle: carboxymethylcellulose (CMC)) was 125 % of control, the T/C (dose: 40.0 mg/kg/injection, schedule: Q01DX001 (ip), vehicle: carboxymethylcellulose (CMC)) was 125 % of control and the T/C (dose: 80.0 mg/kg/injection, schedule: Q01DX001 (ip), vehicle: carboxymethylcellulose (CMC)) was 127 % of control.
With `C/C(=N/OC(=O)N(C)C)c1ccc(Cl)c(Cl)c1` the survivor count [7] was 0 of 4.
With `O=C1/C(=C\c2ccc([N+](=O)[O-])cc2)CS(=O)(=O)C/C1=C/c1ccc([N+](=O)[O-])cc1` the survivor count [3] was 2 of 6.
With `CN(C)Cc1cc(Cl)cc(CN(C)C)c1O` the survivor count [8] was 0 of 3, the survivor count [9] was 0 of 3 and the survivor count [10] was 0 of 6.
In the case of `N#CC1C(=O)c2ccccc2C1=O`, the survivor count [11] is reported as 3 of 6 and the survivor count [12] is reported as 0 of 6.
For `CCCCn1cnc2c(SSc3ncnc4c3ncn4CCCC)ncnc21`, the T/C (dose: 75.0 mg/kg/injection, schedule: Q01DX Z (ip), vehicle: saline) was 131 % of control, the T/C (dose: 200.0 mg/kg/injection, schedule: Q04DX003 (ip), vehicle: gum acacia) was 126 % of control [4 of 6 alive] and the survivor count (dose: 300.0 mg/kg/injection, schedule: Q01DX Z (ip), vehicle: saline) was 0 of 6. The T/C (dose: 300.0 mg/kg/injection, schedule: Q04DX003 (ip), vehicle: gum acacia) was 139 % of control [5 of 6 alive].
`CCOC(=O)c1csc(/C=C/c2ccc([N+](=O)[O-])o2)n1` was tested, and the survivor count (dose: 400.0 mg/kg/injection, schedule: Q04DX003 (ip), vehicle: Klucel (hydroxypropylcellulose) (HPC)) was 0 of 6.
With `O=C(CCCl)[O][Pb]([O]C(=O)CCCl)([c]1ccccc1)[c]1ccccc1` the survivor count (dose: 200.0 mg/kg/injection, schedule: Q04DX003 (ip), vehicle: saline) was 6 of 6 and the survivor count [10] was 6 of 6.
In the case of `CCCCCCOC(CN)C(Cl)(Cl)Cl` (configuration not stated), the survivor count [13] is reported as 1 of 6, the survivor count (dose: 100.0 mg/kg/injection, schedule: Q04DX003 (ip), vehicle: saline with Tween-80) is reported as 4 of 6 and the survivor count [11] is reported as 0 of 6. For the same molecule, the survivor count [12] was 0 of 6.
For `COC1(c2ccccc2)CN(Cc2ccccc2)CCO1` (configuration not stated), the survivor count [1] was 2 of 6.
For `CCOP(=S)(N1CC1C)N1CC1C` (configuration not stated), the survivor count (dose: 400.0 mg/kg/injection, schedule: Q01DX Z (ip), vehicle: carboxymethylcellulose (CMC)) was 5 of 6.
`COc1cc([N+](=O)[O-])ccc1S(=O)(=O)Cl` was tested, and the survivor count [13] was 2 of 6, the T/C [14] was 95 [5 of 6 alive], 96, 109 % of control and the survivor count [14] was 3 of 3. The survivor count (dose: 200.0 mg/kg/injection, schedule: Q01DX001 (ip), vehicle: saline with Tween-80) was 0 of 6, the survivor count [8] was 1 of 3 and 2 of 6 and the survivor count [9] was 0 of 3 and 1 of 6.
With `CCOC(=O)c1cc(OC(C)=O)c2c(ccc3cc(OC)ccc32)c1CC` the survivor count (dose: 200.0 mg/kg/injection, schedule: Q01DX009 (ip), vehicle: saline) was 6 of 6.
`CCCCNc1ncnc2c1cnn2C` was tested, and the survivor count (dose: 150.0 mg/kg/injection, schedule: Q01DX Z (ip), vehicle: saline) was 5 of 6, the survivor count (dose: 250.0 mg/kg/injection, schedule: Q01DX010 (ip), vehicle: saline) was 0 of 6 and 1 of 6 and the survivor count [3] was 0 of 6. For the same molecule, the survivor count (dose: 800.0 mg/kg/injection, schedule: Q01DX001 (ip), vehicle: saline) was 0 of 6.
`CCN(CC)c1ccc(/C=N/N=C(N)N)cc1` was tested, and the survivor count (dose: 30.0 mg/kg/injection, schedule: Q01DX Z (ip), vehicle: other) was 0 of 6, the survivor count (dose: 62.5 mg/kg/injection, schedule: Q01DX Z (ip), vehicle: saline) was 0 of 6 and the survivor count (dose: 125.0 mg/kg/injection, schedule: Q01DX Z (ip), vehicle: saline) was 0 of 6. The survivor count (dose: 250.0 mg/kg/injection, schedule: Q01DX Z (ip), vehicle: saline) was 0 of 6 and the survivor count (dose: 500.0 mg/kg/injection, schedule: Q01DX Z (ip), vehicle: saline) was 0 of 6.
With `CCN(CC)C1=C(Cl)C(=O)c2ccccc2C1=O` the survivor count (dose: 400.0 mg/kg/injection, schedule: Q01DX009 (ip), vehicle: saline with Tween-80) was 2 of 6.
For `O=C(O)c1ccncc1C(=O)O`, the survivor count [6] was 4 of 4.
In the case of `CC(=O)OCC1C(C)CCC1C(C)(C)OC(C)=O` (configuration not stated), the survivor count [2] is reported as 0 of 6 and the survivor count [3] is reported as 1 of 6.
With `O=C(O)c1cc(CBr)cc(CBr)c1` the survivor count (dose: 12.5 mg/kg/injection, schedule: Q01DX009 (ip), vehicle: saline with Tween-80) was 0 of 6 and the survivor count (dose: 25.0 mg/kg/injection, schedule: Q01DX001 (ip), vehicle: saline with Tween-80) was 1 of 6.
`CCOc1ccc(C(=O)Nc2ccc(C3=NCCN3)cc2)cc1C(=O)Nc1ccc(C2=NCCN2)cc1` was tested, and the T/C (dose: 120.0 mg/kg/injection, schedule: Q01DX Z (ip), vehicle: carboxymethylcellulose (CMC)) was 148 % of control, the T/C (dose: 240.0 mg/kg/injection, schedule: Q01DX Z (ip), vehicle: carboxymethylcellulose (CMC)) was 136 % of control and the survivor count (dose: 480.0 mg/kg/injection, schedule: Q01DX Z (ip), vehicle: carboxymethylcellulose (CMC)) was 4 of 6.
In the case of `CCN(CC)CCOc1cc(C)c2cc(Cc3ccccc3)ccc2n1`, the survivor count [7] is reported as 0 of 6.
`CC1=CC(=O)C(C)(C)C=C1` was tested, and the survivor count [12] was 2 of 6.
`FC(F)=C(F)I` was tested, and the survivor count (dose: 400.0 mg/kg/injection, schedule: Q04DX002 (ip), vehicle: other) was 0 of 3.
